Data: the supplement of paper PMC5393889
Some of the results follow.

Each molecule was assayed on Caenorhabditis elegans N2 (assay: aldicarb interaction hit call (worm growth perturbed in combination with 10 uM aldicarb in both replicates, no effect as single agent) (binary (1 = interacts)); higher = interacts with aldicarb (growth perturbed)). Conditions: first compound 1.5 µM; aldicarb concentration 10 µM; 6 days; 20 °C.
Experimental: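 C. elegans liquid growth assay in 96-well plates: about 40 synchronized L1 worms in NGM with HB101 E. coli, 6 days at 20 C, 0.6% DMSO. Each wactive compound was tested at 1.5 uM plus 10 uM aldicarb, and alone in DMSO controls. Viable worms were scored under a dissection microscope in two replicates. A hit is a compound that perturbed growth with aldicarb in both replicates but had no obvious effect as a single agent. Only compounds that overgrew as single agents are kept.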

**Q.** Which “aldicarb interaction hit call” value does the source give for `Cl.FC(F)(F)c1cccc(OCCCCn2ccnc2)c1` [wact-155] + CNC(=O)O/N=C/C(C)(C)SC [aldicarb] here?
**A.** inactive: 0

**Q.** How did the “aldicarb interaction hit call” value turn out when `Cc1ccc(N2CCN(C/C=C/c3ccccc3)CC2)cc1` [wact-44] + CNC(=O)O/N=C/C(C)(C)SC [aldicarb] was run?
**A.** inactive: 0

**Q.** How did the “aldicarb interaction hit call” value turn out when `COc1ccccc1C(=O)Nc1ccc(F)cc1F` [wact-592] + CNC(=O)O/N=C/C(C)(C)SC [aldicarb] was run?
**A.** inactive: 0

**Q.** Which “aldicarb interaction hit call” value does the source give for `Cc1oc(-c2ccc(F)cc2)nc1CN(C)C(C)c1cccs1` (stereo not given) [wact-293] + CNC(=O)O/N=C/C(C)(C)SC [aldicarb] here?
**A.** inactive: 0

**Q.** `C#CCN1C(=O)S/C(=C/c2cc(C)n(-c3cccc(C(=O)OC)c3C)c2C)C1=O` [wact-358] + CNC(=O)O/N=C/C(C)(C)SC [aldicarb] was tested. Which “aldicarb interaction hit call” value did it give?
**A.** inactive: 0

**Q.** Which “aldicarb interaction hit call” value does the source give for `Oc1ccccc1/C=N/Nc1cccc2cccnc12` [wact-372] + CNC(=O)O/N=C/C(C)(C)SC [aldicarb] here?
**A.** active: 1

**Q.** Which “aldicarb interaction hit call” value does the source give for `C=CCSc1nc2ccccc2c(=O)n1-c1ccccc1OC` [wact-60] + CNC(=O)O/N=C/C(C)(C)SC [aldicarb] here?
**A.** inactive: 0

**Q.** `CC(Cc1cnccn1)NC(=O)c1csc2nc(-c3cccc(C(F)(F)F)c3)cn12` (stereo not given) [wact-294] + CNC(=O)O/N=C/C(C)(C)SC [aldicarb] was tested. Which “aldicarb interaction hit call” value did it give?
**A.** inactive: 0

**Q.** `O=C(Nc1nc(-c2ccccc2)cs1)c1cccs1` [wact-590] + CNC(=O)O/N=C/C(C)(C)SC [aldicarb] was tested. Which “aldicarb interaction hit call” value did it give?
**A.** inactive: 0

**Q.** With `O=C(NCc1cccc(C(F)(F)F)c1)c1nc(-c2ccccc2)no1` [wact-201] + CNC(=O)O/N=C/C(C)(C)SC [aldicarb] as the molecule, how does the “aldicarb interaction hit call” value read?
**A.** inactive: 0

**Q.** How did the “aldicarb interaction hit call” value turn out when `O=C(Nc1ccc2[nH]c(-c3cccs3)nc2c1)c1cccs1` [wact-534] + CNC(=O)O/N=C/C(C)(C)SC [aldicarb] was run?
**A.** inactive: 0

**Q.** Which “aldicarb interaction hit call” value does the source give for `c1ccc2c(SCCc3ccncc3)cccc2c1` [wact-19] + CNC(=O)O/N=C/C(C)(C)SC [aldicarb] here?
**A.** inactive: 0

**Q.** With `O=C(c1ccc(Br)cc1)N1CCN(c2ccc([N+](=O)[O-])cc2)CC1` [wact-381] + CNC(=O)O/N=C/C(C)(C)SC [aldicarb] as the molecule, how does the “aldicarb interaction hit call” value read?
**A.** active: 1

**Q.** How did the “aldicarb interaction hit call” value turn out when `C=CCNCc1ccc(-c2ccc(Cl)cc2)o1.Cl` [wact-187] + CNC(=O)O/N=C/C(C)(C)SC [aldicarb] was run?
**A.** inactive: 0

**Q.** With `CCOc1ccc(C(=O)Nc2ccc(Cc3ccncc3)cc2)cc1` [wact-366] + CNC(=O)O/N=C/C(C)(C)SC [aldicarb] as the molecule, how does the “aldicarb interaction hit call” value read?
**A.** inactive: 0

**Q.** How did the “aldicarb interaction hit call” value turn out when `COc1ccc(-c2noc(-c3ccccc3)n2)cc1` [wact-574] + CNC(=O)O/N=C/C(C)(C)SC [aldicarb] was run?
**A.** inactive: 0

**Q.** Which “aldicarb interaction hit call” value does the source give for `Cc1cc(Cl)ccc1C(=O)C1CCCN(Cc2cccn2-c2nccs2)C1` (stereo not given) [wact-254] + CNC(=O)O/N=C/C(C)(C)SC [aldicarb] here?
**A.** inactive: 0

**Q.** `O=C(c1ccc(COc2ccc(Cl)cc2)cc1)N1CCCCC1` [wact-606] + CNC(=O)O/N=C/C(C)(C)SC [aldicarb] was tested. Which “aldicarb interaction hit call” value did it give?
**A.** inactive: 0

**Q.** `COc1cc(NC(=O)c2cc3ccccc3o2)ccc1NC(=O)c1ccccc1Cl` [wact-86] + CNC(=O)O/N=C/C(C)(C)SC [aldicarb] was tested. Which “aldicarb interaction hit call” value did it give?
**A.** active: 1

**Q.** How did the “aldicarb interaction hit call” value turn out when `Cl.Clc1ccc(-c2ccc(CNC3CC3)o2)cc1` [wact-194] + CNC(=O)O/N=C/C(C)(C)SC [aldicarb] was run?
**A.** inactive: 0

**Q.** Which “aldicarb interaction hit call” value does the source give for `c1ccc(COc2ccc(-c3nc(-c4ccccn4)no3)cc2)cc1` [wact-153] + CNC(=O)O/N=C/C(C)(C)SC [aldicarb] here?
**A.** active: 1

**Q.** `c1ccc(CSc2nnc(-c3ccccc3)o2)cc1` [wact-38] + CNC(=O)O/N=C/C(C)(C)SC [aldicarb] was tested. Which “aldicarb interaction hit call” value did it give?
**A.** inactive: 0

**Q.** `COc1ccc(S(=O)(=O)N2CCCCCC2)c(C)c1C` [wact-583] + CNC(=O)O/N=C/C(C)(C)SC [aldicarb] was tested. Which “aldicarb interaction hit call” value did it give?
**A.** inactive: 0

**Q.** Which “aldicarb interaction hit call” value does the source give for `O=C(Nc1ccc(-c2noc(CCc3ccccc3)n2)cc1)c1cccs1` [wact-226] + CNC(=O)O/N=C/C(C)(C)SC [aldicarb] here?
**A.** inactive: 0

**Q.** For `O=C(/C=C/c1ccc(Cl)cc1Cl)N1CCN(c2ccc(F)cc2)CC1` [wact-437] + CNC(=O)O/N=C/C(C)(C)SC [aldicarb], which “aldicarb interaction hit call” value is on record?
**A.** inactive: 0

**Q.** How did the “aldicarb interaction hit call” value turn out when `Cc1cc(I)ccc1NS(=O)(=O)c1ccc(F)cc1` [wact-408] + CNC(=O)O/N=C/C(C)(C)SC [aldicarb] was run?
**A.** inactive: 0

**Q.** `O=C(c1ccc(Cl)cc1)C1CCCN(Cc2ccccc2)C1` (stereo not given) [wact-328] + CNC(=O)O/N=C/C(C)(C)SC [aldicarb] was tested. Which “aldicarb interaction hit call” value did it give?
**A.** inactive: 0

**Q.** Which “aldicarb interaction hit call” value does the source give for `O=[N+]([O-])c1ccc(N2CCN(CC3CC=CCC3)CC2)cc1` (stereo not given) [wact-47] + CNC(=O)O/N=C/C(C)(C)SC [aldicarb] here?
**A.** inactive: 0

**Q.** Which “aldicarb interaction hit call” value does the source give for `O=C(N/N=C/c1ccncc1)c1n[nH]c2c1CCCC2` [mezole-1] + CNC(=O)O/N=C/C(C)(C)SC [aldicarb] here?
**A.** inactive: 0

**Q.** Which “aldicarb interaction hit call” value does the source give for `COc1ccc(CN2CCCC(C(=O)c3ccc(Cl)cc3)C2)cc1` (stereo not given) [wact-306] + CNC(=O)O/N=C/C(C)(C)SC [aldicarb] here?
**A.** inactive: 0

**Q.** `Cc1csc2nc3ccccc3c(=O)n12` [wact-618] + CNC(=O)O/N=C/C(C)(C)SC [aldicarb] was tested. Which “aldicarb interaction hit call” value did it give?
**A.** inactive: 0

**Q.** For `Clc1ccc(Cc2nc(-c3cccs3)no2)cc1` [wact-566] + CNC(=O)O/N=C/C(C)(C)SC [aldicarb], which “aldicarb interaction hit call” value is on record?
**A.** inactive: 0

**Q.** With `COc1cnn(-c2cccc(C(F)(F)F)c2)c(=O)c1Cl` [wact-37] + CNC(=O)O/N=C/C(C)(C)SC [aldicarb] as the molecule, how does the “aldicarb interaction hit call” value read?
**A.** inactive: 0

**Q.** Which “aldicarb interaction hit call” value does the source give for `CC(Oc1ccccc1)c1nc(-c2ccc(Cl)cc2)no1` (stereo not given) [wact-185] + CNC(=O)O/N=C/C(C)(C)SC [aldicarb] here?
**A.** inactive: 0

**Q.** For `N/C(=N\OC(=O)c1ccccc1Cl)c1ccccc1` [wact-34] + CNC(=O)O/N=C/C(C)(C)SC [aldicarb], which “aldicarb interaction hit call” value is on record?
**A.** inactive: 0

**Q.** Which “aldicarb interaction hit call” value does the source give for `C#CCNS(=O)(=O)c1cccc(C(=O)Nc2nc(-c3ccc(F)c(F)c3)c(C)s2)c1` [wact-346] + CNC(=O)O/N=C/C(C)(C)SC [aldicarb] here?
**A.** inactive: 0

**Q.** `Cc1cccc(-c2nc(-c3ccccc3)no2)c1` [wact-506] + CNC(=O)O/N=C/C(C)(C)SC [aldicarb] was tested. Which “aldicarb interaction hit call” value did it give?
**A.** inactive: 0

**Q.** Which “aldicarb interaction hit call” value does the source give for `O=C(c1ccc(F)cc1)N1CCN(c2ccc(C(F)(F)F)cc2[N+](=O)[O-])CC1` [wact-450] + CNC(=O)O/N=C/C(C)(C)SC [aldicarb] here?
**A.** inactive: 0

**Q.** For `O=C(c1ccc(-c2ccccc2)cc1)N1CCC(c2ccccc2)C1` (stereo not given) [wact-101] + CNC(=O)O/N=C/C(C)(C)SC [aldicarb], which “aldicarb interaction hit call” value is on record?
**A.** inactive: 0

**Q.** Which “aldicarb interaction hit call” value does the source give for `Cc1nc(NC(=O)c2cccs2)ccc1Br` [wact-516] + CNC(=O)O/N=C/C(C)(C)SC [aldicarb] here?
**A.** inactive: 0
